Laboratory results taken from PubChem BioAssay AID1469 (National Center for Advancing Translational Sciences (NCATS), 2008).
About 180 (0.064%) of roughly 280,000 compounds were called active. The inconclusive results got no clear call from the source; some entries with a clear call stand among them for comparison. The call rests on the fitted dose curve; in most records, active means well fitted inhibition curve with a large enough effect; inconclusive means small, poorly fitted or top-dose-only effect, or effect the other way; inactive means flat fitted curve, though single readings scatter. A potency beside an inconclusive call is a rough fit, not a confirmed value.

Amino acid sequences for entries named in this document (tags omitted). A change or cut given only in a name is not applied to a line headed by its entry.
UniProt P10828: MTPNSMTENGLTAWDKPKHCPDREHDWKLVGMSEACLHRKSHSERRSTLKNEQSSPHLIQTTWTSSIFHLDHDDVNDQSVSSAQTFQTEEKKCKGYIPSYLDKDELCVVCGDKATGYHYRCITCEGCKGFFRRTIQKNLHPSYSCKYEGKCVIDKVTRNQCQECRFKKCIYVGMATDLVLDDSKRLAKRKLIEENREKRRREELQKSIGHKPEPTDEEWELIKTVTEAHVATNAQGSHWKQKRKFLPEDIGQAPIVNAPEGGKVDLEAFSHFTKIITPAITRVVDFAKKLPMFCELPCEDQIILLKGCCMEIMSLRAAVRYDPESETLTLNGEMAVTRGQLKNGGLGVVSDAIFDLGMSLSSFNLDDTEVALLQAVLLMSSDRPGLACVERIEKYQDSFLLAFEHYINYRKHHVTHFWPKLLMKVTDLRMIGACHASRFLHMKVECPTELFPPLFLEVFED

biological target: Thyroid hormone receptor beta (Homo sapiens) (UniProt P10828); assay: qHTS for Inhibitors of the Interaction of Thyroid Hormone Receptor and Steroid Receptor Coregulator 2; conditions: TRbeta-SRC2 peptide binding, fluorescence polarization, receptor liganded with 1 µM T3; series mostly up to 106 µM; activity change, negative = inhibition: at the top concentration; further: nearly all actives have a fitted effect of over 50% in size;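 on activity change, negative = inhibition: plate controls were bound peptide for no effect and peptide without receptor for full effect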
How it was run: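 Assay buffer: 20 mM Tris-HCl, 100 mM NaCl, 10% glycerol, 1 mM EDTA, 0.01% NP-40, 1 mM DTT, 1 uM T3, 5% DMSO; TRb LBD 0.6 uM, Texas Red SRC2 20 nM; FP after 5 hr.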
Potency means the concentration at half of the fitted maximal effect.

Row | SMILES | Potency | activity change, negative = inhibition
1 | COc1ccc(/C=C2/SC(=S)N(n3c(C)ccc3C)C2=O)cc1 | inconclusive: 70.8 µM [inhibitor, single point] | –
2 | CCOc1cc(/C=C2/C(=O)N(c3ccccc3)N=C2C)ccc1OC(=O)c1cccs1 | inconclusive: 56.2 µM [inhibitor, partial curve, poor fit] | –
3 | Cc1ccc(S(=O)(=O)NCc2ccc3c(c2)cc(C)n3C)cc1 | inconclusive: 44.7 µM [inhibitor, partial curve] | –
4 | CCSc1ncc(Cl)c(C(=O)Nc2nc3ccc(OC)cc3s2)n1 | inconclusive: 2.82 µM [inhibitor, partial curve] | –
5 | COc1ccc2c(c1)OC/C(=C\c1ccc(OC)c(O)c1)C2=O | – | inactive: -1.03%
6 | Cc1cc(/C=C2\SC(=S)NC2=O)c(C)[nH]1 | inconclusive: 70.8 µM [activator, single point] | –
7 | O=C(O)[C@H](Cc1c[nH]c2ccccc12)N1C(=O)C2=CCCC=C2C1=O | – | inactive: -2.6%
8 | O=C1OC2(c3ccccc31)c1cc(I)c(O)c(I)c1Oc1c2cc(I)c(O)c1I | inconclusive: 14.1 µM [activator, full curve] | –
9 | COc1cc(O)c2c(c1)oc(=O)c1c3cc(O)c(O)cc3oc21 | inconclusive: 50.1 µM [activator, single point] | –
10 | O=C(Nc1cccc(F)c1)C1C2C=CC3(CN(CCCN4CCOCC4)C(=O)C13)O2 (centres undefined) | inconclusive: 44.7 µM [inhibitor, partial curve, poor fit] | –
11 | Nc1[nH]n2c(=O)c3c(nc2c1N=Nc1ccccc1)CCCC3 | – | inactive: 5.58%
12 | C[N+]1=C(/C=C/Nc2ccccc2Cl)C(C)(C)c2ccccc21 | inconclusive: 35.5 µM [activator, partial curve] | –
13 | Oc1ccc2ccccc2c1C=Nc1cc(C(F)(F)F)ccc1N1CCCC1 | inconclusive: 70.8 µM [inhibitor, single point] | –
14 | Cc1ccc(C)c(NC(=O)c2cc3ccccn3n2)c1 | – | inactive: 3.16%
15 | O=C(CN1CCN(c2ccccn2)CC1)Nc1ccccc1 | inconclusive: 39.8 µM [inhibitor, partial curve, poor fit] | –
16 | Cc1ccc(-c2cc(C(=O)NCCc3ccc(S(N)(=O)=O)cc3)c3ccccc3n2)cc1 | inconclusive: 70.8 µM [inhibitor, single point] | –
17 | CCOc1ccc(-c2cc(CCCC(=O)NCCc3cc(OC)c(OC)c(OC)c3)no2)cc1 | – | inactive: 2.19%
18 | O=C(COc1ccccc1)Nc1nccs1 | inconclusive: 56.2 µM [inhibitor, partial curve] | –
19 | Fc1ccc(Nc2ncnc3c2nc2n3CCCCC2)c(F)c1 | – | inactive: 5.98%

Whole records, quoted from the list:
`Oc1ccc2ccccc2c1C=Nc1cc(C(F)(F)F)ccc1N1CCCC1` in the list: Potency: inconclusive: 70.8 µM [inhibitor, single point]
`O=C(O)[C@H](Cc1c[nH]c2ccccc12)N1C(=O)C2=CCCC=C2C1=O` in the list: activity change, negative = inhibition: inactive: -2.6%
